PubChem BioAssay AID1259254 | NCATS | 2017
Test: 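Finding genes that stop cells copying their DNA twice in one cycle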 (primary screen). System: human HCT116 colorectal cancer cells. Reagent: single siRNA against human genes. Timing: 3 days. Measurement: 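Nuclei stained with Hoechst and imaged; cell-cycle phase assigned by DNA content; G2 share scaled per plate, non-targeting siRNA 0%, GMNN siRNA 100%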. Reading the numbers: G2 robust z-score and G2 cells, % of GMNN control: higher = more G2 cells, more excess DNA replication; raw share of cells in G2: higher = larger share of cells with G2 DNA content. Hit rule: 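An siRNA counts as active if its G2 robust z-score lies at least 5 MADs above the screen median; here such calls match roughly 38% of GMNN control or more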.
Shown is an unselected part of about 59,000 deposited reagents. Over the whole deposit, about 1,550 (2.6%) are marked active. 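G2 share is only a proxy for re-replication; each gene was hit by three separate siRNAs, and active genes were retested.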 Raw values are not corrected between plates. The numbers tell different reagents against one gene apart. The record does not give: the amount of reagent.

no.	gene	reagent	G2 robust z-score	G2 cells, % of GMNN control	raw share of cells in G2 (%)	call
1	ERI3 (GeneID 79033)	1	4.17	32.3	18.7	inactive
2	ERI3 (GeneID 79033)	2	-0.463	-0.287	4.48	inactive
3	ERI3 (GeneID 79033)	3	5.1	38.8	13	active
4	C16orf78 (GeneID 123970)	1	0.0142	3.07	5.32	inactive
5	C16orf78 (GeneID 123970)	2	-0.357	0.456	3.47	inactive
6	C16orf78 (GeneID 123970)	3	-0.4	0.151	1.86	inactive
7	CPSF4 (GeneID 10898)	1	1.34	12.4	11.4	inactive
8	CPSF4 (GeneID 10898)	2	2.46	20.3	10.4	inactive
9	CPSF4 (GeneID 10898)	3	0.735	8.14	9.23	inactive
10	FER1L5 (GeneID 90342)	1	0.434	6.02	6.64	inactive
11	FER1L5 (GeneID 90342)	2	-0.0186	2.84	3.89	inactive
12	FER1L5 (GeneID 90342)	3	0.493	6.44	4.96	inactive
13	SNUPN (GeneID 10073)	1	0.944	9.61	8.83	inactive
14	SNUPN (GeneID 10073)	2	0.0795	3.53	4.4	inactive
15	SNUPN (GeneID 10073)	3	0.697	7.87	7.95	inactive
16	LCLAT1 (GeneID 253558)	1	0.155	4.06	6.41	inactive
17	LCLAT1 (GeneID 253558)	2	1.56	14	9.82	inactive
18	LCLAT1 (GeneID 253558)	3	0.858	9	10.3	inactive
19	RPL36 (GeneID 25873)	1	0.962	9.73	8.15	inactive
20	RPL36 (GeneID 25873)	2	2.28	19	9.94	inactive
21	RPL36 (GeneID 25873)	3	6.43	48.2	22.5	active
22	SON (GeneID 6651)	1	2.34	19.4	13.7	inactive
23	SON (GeneID 6651)	2	0.219	4.51	5.68	inactive
24	SON (GeneID 6651)	3	0.869	9.08	6.56	inactive

Limited to “G2 cells, % of GMNN control” (8 entries from above):
SNUPN (GeneID 10073) #3 = 7.87
LCLAT1 (GeneID 253558) #1 = 4.06
LCLAT1 (GeneID 253558) #2 = 14
LCLAT1 (GeneID 253558) #3 = 9
RPL36 (GeneID 25873) #1 = 9.73
RPL36 (GeneID 25873) #2 = 19
RPL36 (GeneID 25873) #3 = 48.2
SON (GeneID 6651) #1 = 19.4

Additional records follow.
no.	gene	reagent	G2 robust z-score	G2 cells, % of GMNN control	raw share of cells in G2 (%)	call
25	ACSM3 (GeneID 6296)	1	-0.891	-3.3	3.84	inactive
26	ACSM3 (GeneID 6296)	2	-0.724	-2.13	3.87	inactive
27	ACSM3 (GeneID 6296)	3	-0.585	-1.15	3.76	inactive
28	GPATCH3 (GeneID 63906)	1	1.18	11.3	9.48	inactive
29	GPATCH3 (GeneID 63906)	2	1.47	13.3	10.6	inactive
30	GPATCH3 (GeneID 63906)	3	1.95	16.7	7.1	inactive
31	DAB1 (GeneID 1600)	1	0.647	7.52	7.74	inactive
32	DAB1 (GeneID 1600)	2	2.04	17.3	11.2	inactive
33	DAB1 (GeneID 1600)	3	-1.31	-6.28	1.93	inactive
34	GLYATL1 (GeneID 92292)	1	1.77	15.4	11.6	inactive
35	GLYATL1 (GeneID 92292)	2	-1.14	-5.09	3.31	inactive
36	GLYATL1 (GeneID 92292)	3	-0.291	0.918	4.83	inactive
37	CEP19 (GeneID 84984)	1	4.6	35.3	14.1	inactive
38	CEP19 (GeneID 84984)	2	-0.224	1.39	4.67	inactive
39	CEP19 (GeneID 84984)	3	-0.605	-1.29	2.6	inactive
40	PRDX6 (GeneID 9588)	1	1.2	11.4	9.53	inactive
41	PRDX6 (GeneID 9588)	2	1.59	14.2	10.5	inactive
42	PRDX6 (GeneID 9588)	3	-0.271	1.06	3.56	inactive
43	CABLES1 (GeneID 91768)	1	-0.994	-4.03	2.38	inactive
44	CABLES1 (GeneID 91768)	2	-0.386	0.255	3.08	inactive
45	CABLES1 (GeneID 91768)	3	0.197	4.35	4.31	inactive
46	SNHG29 (GeneID 125144)	1	0.0755	3.5	2.84	inactive
47	SNHG29 (GeneID 125144)	2	1.69	14.8	10	inactive
48	SNHG29 (GeneID 125144)	3	-1.07	-4.54	1.98	inactive
49	SLC26A2 (GeneID 1836)	1	-0.107	2.21	5.8	inactive
50	SLC26A2 (GeneID 1836)	2	0.898	9.29	7.3	inactive
51	SLC26A2 (GeneID 1836)	3	1.57	14	9.96	inactive
52	ARHGEF34P (GeneID 728377)	1	1.21	11.5	6.92	inactive
53	ARHGEF34P (GeneID 728377)	2	-0.714	-2.06	2.82	inactive
54	ARHGEF34P (GeneID 728377)	3	-0.381	0.284	3.65	inactive
55	REP15 (GeneID 387849)	1	0.0377	3.23	4.88	inactive
56	REP15 (GeneID 387849)	2	2.09	17.7	11.1	inactive
57	REP15 (GeneID 387849)	3	-0.643	-1.56	3.97	inactive
58	CYP7B1 (GeneID 9420)	1	2.46	20.3	12.9	inactive
59	CYP7B1 (GeneID 9420)	2	0.766	8.36	8.14	inactive
60	CYP7B1 (GeneID 9420)	3	-0.877	-3.2	2.11	inactive
61	OR51V1 (GeneID 283111)	1	-0.123	2.1	3.91	inactive
62	OR51V1 (GeneID 283111)	2	4.71	36.1	16.8	inactive
63	OR51V1 (GeneID 283111)	3	1.06	10.4	7.08	inactive
64	MMP1 (GeneID 4312)	1	-0.0647	2.51	6.43	inactive
65	MMP1 (GeneID 4312)	2	5.46	41.4	19.6	active
66	MMP1 (GeneID 4312)	3	0.199	4.37	5.54	inactive
67	BCL2 (GeneID 596)	1	-0.898	-3.35	3.88	inactive
68	BCL2 (GeneID 596)	2	4.39	33.9	16.2	inactive
69	BCL2 (GeneID 596)	3	-0.475	-0.373	3.85	inactive
